In paper PMC3794586:
Results are given in words; binding and its absence hold for the method and conditions named. In cells and extracts the contact can be indirect. Some binding calls cover weakened binding; strength is not graded here.

The chains behind the UniProt entries cited, without tags or fusion partners.
UniProt Q13526: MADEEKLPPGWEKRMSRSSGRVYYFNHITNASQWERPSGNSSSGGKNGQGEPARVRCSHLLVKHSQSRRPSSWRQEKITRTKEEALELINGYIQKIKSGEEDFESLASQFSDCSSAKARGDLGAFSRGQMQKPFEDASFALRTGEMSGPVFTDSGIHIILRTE
UniProt P04150: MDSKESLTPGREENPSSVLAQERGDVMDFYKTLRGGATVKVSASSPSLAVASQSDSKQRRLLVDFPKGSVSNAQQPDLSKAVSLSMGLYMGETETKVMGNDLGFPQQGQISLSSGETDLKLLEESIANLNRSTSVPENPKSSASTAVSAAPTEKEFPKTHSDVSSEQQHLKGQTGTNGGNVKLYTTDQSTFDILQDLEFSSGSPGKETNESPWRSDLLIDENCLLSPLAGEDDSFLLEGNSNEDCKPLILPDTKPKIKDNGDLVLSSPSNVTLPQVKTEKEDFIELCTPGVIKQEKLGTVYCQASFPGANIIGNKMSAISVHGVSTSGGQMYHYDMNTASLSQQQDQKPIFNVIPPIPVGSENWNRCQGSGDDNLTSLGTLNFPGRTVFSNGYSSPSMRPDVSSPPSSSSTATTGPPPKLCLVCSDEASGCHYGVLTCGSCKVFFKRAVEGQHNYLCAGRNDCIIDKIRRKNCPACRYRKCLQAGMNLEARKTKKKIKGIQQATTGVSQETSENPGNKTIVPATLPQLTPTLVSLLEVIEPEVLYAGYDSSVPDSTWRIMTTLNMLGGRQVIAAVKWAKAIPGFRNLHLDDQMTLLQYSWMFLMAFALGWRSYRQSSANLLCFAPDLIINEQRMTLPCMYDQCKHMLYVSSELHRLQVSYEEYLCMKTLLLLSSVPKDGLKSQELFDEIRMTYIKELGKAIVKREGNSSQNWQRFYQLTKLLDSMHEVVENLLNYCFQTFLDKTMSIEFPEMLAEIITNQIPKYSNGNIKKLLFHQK
UniProt Q15596: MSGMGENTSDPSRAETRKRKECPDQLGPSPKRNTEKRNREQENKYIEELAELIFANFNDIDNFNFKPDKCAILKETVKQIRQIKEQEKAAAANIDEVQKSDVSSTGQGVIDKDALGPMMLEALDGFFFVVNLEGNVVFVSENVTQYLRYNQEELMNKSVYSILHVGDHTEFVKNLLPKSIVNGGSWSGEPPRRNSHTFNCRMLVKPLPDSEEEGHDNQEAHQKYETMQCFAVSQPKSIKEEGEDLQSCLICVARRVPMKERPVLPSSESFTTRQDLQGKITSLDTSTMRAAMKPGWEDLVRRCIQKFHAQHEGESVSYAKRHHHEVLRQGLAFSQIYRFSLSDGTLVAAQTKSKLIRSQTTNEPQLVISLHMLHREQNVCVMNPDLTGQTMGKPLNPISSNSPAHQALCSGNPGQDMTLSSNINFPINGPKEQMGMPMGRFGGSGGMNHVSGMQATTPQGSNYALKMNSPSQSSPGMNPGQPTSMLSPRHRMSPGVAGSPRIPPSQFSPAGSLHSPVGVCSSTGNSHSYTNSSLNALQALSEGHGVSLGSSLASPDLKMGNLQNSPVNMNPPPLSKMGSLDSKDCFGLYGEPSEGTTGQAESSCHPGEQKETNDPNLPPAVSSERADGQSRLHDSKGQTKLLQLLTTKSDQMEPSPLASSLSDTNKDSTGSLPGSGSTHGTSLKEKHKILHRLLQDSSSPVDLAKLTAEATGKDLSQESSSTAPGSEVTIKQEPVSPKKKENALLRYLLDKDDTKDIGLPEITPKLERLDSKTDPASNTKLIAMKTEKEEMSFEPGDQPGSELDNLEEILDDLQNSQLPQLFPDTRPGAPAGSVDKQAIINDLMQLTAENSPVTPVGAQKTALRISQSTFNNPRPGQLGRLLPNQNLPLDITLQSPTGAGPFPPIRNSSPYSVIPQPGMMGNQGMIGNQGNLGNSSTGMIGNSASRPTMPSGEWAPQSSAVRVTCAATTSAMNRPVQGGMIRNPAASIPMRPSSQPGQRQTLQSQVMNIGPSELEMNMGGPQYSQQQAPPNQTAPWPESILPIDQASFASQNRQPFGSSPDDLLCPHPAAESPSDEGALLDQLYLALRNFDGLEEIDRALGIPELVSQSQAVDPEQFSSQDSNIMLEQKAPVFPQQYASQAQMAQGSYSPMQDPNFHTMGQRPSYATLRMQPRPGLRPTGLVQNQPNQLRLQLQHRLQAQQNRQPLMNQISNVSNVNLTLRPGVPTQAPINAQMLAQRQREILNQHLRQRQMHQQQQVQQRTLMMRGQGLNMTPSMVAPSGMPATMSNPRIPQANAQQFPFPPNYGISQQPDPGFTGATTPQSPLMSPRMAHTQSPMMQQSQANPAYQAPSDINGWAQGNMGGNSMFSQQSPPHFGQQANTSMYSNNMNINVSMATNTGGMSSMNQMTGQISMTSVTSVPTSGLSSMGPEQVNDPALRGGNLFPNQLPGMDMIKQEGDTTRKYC

Assays:
[1] = biological target: Pin1 (human (endogenous in A549)) (UniProt Q13526); test: co-IP; endogenous proteins immunoprecipitated from A549 cell lysates (500 µg total protein, 2 µg antibody, 1 h at 4°C, Protein A or G; lysis buffer 250 mM NaCl, 20 mM Bicine pH 7.4, 0.5% IGEPAL; extracts DNase treated; six washes), immunoblot; cells treated with DEX (100 nM) for the indicated time or 1 h
[2] = biological target: glucocorticoid receptor (GR) (human (endogenous in A549)) (UniProt P04150); test: as above

binding [1]	binding [2]	Substance
binds	–	glucocorticoid receptor (GR) (from UniProt P04150 1-777)
–	binds	Pin1 (from UniProt Q13526 1-163) (enzyme)
no binding	–	SRC-2 (from UniProt Q15596 1-1464)
